Data published in the supplement of paper PMC7661543.
± gives the standard deviation of the averaged measurements. Differences between knockout arms are mostly noise.

Tested on: ZR-75-1
Assay: relative cell number vs DMSO control (72 h) (% of DMSO); higher = less growth inhibition (more cells)
Method: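 QMAP-Seq: a pool of 5 breast cancer cell lines (ZR-75-1, SKBR3, HCC-38, MDA-MB-231, BT-20), each carrying 12 doxycycline-inducible Cas9 sgRNA perturbations (11 knockouts plus non-targeting sgNT), was treated with compounds for 72 h at four 10-fold doses (10 nM-10 uM or 1 nM-1 uM range). Barcodes were amplified and sequenced, and cell number was interpolated from 293T spike-in standard curves. The result is expressed as % of the median of DMSO wells. Two biological replicates.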

[1] = sgRNA knockout: sgATF3, 1000 nM
[2] = sgRNA knockout: sgATF3, 10000 nM
[3] = sgRNA knockout: sgATF4, 1000 nM
[4] = sgRNA knockout: sgATF4, 10000 nM
[5] = sgRNA knockout: sgATF6, 1000 nM
[6] = sgRNA knockout: sgATF6, 10000 nM
[7] = sgRNA knockout: sgATG7, 1000 nM
[8] = sgRNA knockout: sgATG7, 10000 nM
[9] = sgRNA knockout: sgERN1, 1000 nM
[10] = sgRNA knockout: sgERN1, 10000 nM
[11] = sgRNA knockout: sgHSF2, 1000 nM
[12] = sgRNA knockout: sgHSF2, 10000 nM
[13] = sgRNA knockout: sgNFE2L2, 10 nM
[14] = sgRNA knockout: sgNFE2L2, 100 nM
[15] = sgRNA knockout: sgNFE2L2, 1000 nM
[16] = sgRNA knockout: sgNFE2L2, 10000 nM
[17] = sgRNA knockout: sgSLC35F2, 10 nM
[18] = sgRNA knockout: sgSLC35F2, 100 nM
[19] = sgRNA knockout: sgSLC35F2, 1000 nM
[20] = sgRNA knockout: sgSLC35F2, 10000 nM
[21] = sgRNA knockout: sgXBP1, 1000 nM
[22] = sgRNA knockout: sgXBP1, 10000 nM

With `N[C@@H](CC(=O)N1CCn2c(nnc2C(F)(F)F)C1)Cc1cc(F)c(F)cc1F` [Sitagliptin] the relative cell number (sgRNA knockout: sgATF3, 10 nM) was 108 ± 9, the relative cell number (sgRNA knockout: sgATF3, 100 nM) was 140 ± 48 and the relative cell number [1] was 115 ± 28. The relative cell number [2] was 101 ± 14, the relative cell number (sgRNA knockout: sgATF4, 10 nM) was 115 ± 68 and the relative cell number (sgRNA knockout: sgATF4, 100 nM) was 114 ± 2.6. It also gave a relative cell number [3] of 102 ± 16, a relative cell number [4] of 77.7 ± 6.9 and a relative cell number (sgRNA knockout: sgATF6, 10 nM) of 92.2 ± 11. The relative cell number (sgRNA knockout: sgATF6, 100 nM) was 143 ± 62, the relative cell number [5] was 67.5 ± 1.8 and the relative cell number [6] was 98.6 ± 14. It also gave a relative cell number (sgRNA knockout: sgATG7, 10 nM) of 98.1 ± 23, a relative cell number (sgRNA knockout: sgATG7, 100 nM) of 93.7 ± 22 and a relative cell number [7] of 116 ± 72. The relative cell number [8] was 70.4 ± 14, the relative cell number (sgRNA knockout: sgERN1, 10 nM) was 87.5 ± 1.7 and the relative cell number (sgRNA knockout: sgERN1, 100 nM) was 96.9 ± 9. For the same compound, the relative cell number [9] was 97.6 ± 30, the relative cell number [10] was 89 ± 18 and the relative cell number (sgRNA knockout: sgHSF2, 10 nM) was 112 ± 22. The relative cell number (sgRNA knockout: sgHSF2, 100 nM) was 98.6 ± 16, the relative cell number [11] was 133 ± 14 and the relative cell number [12] was 134.3 ± 0.98. The relative cell number [13] was 105 ± 22, the relative cell number [14] was 112 ± 26 and the relative cell number [15] was 101 ± 2.1. For the same compound, the relative cell number [16] was 94.3 ± 65, the relative cell number [17] was 106 ± 28 and the relative cell number [18] was 85.6 ± 61. It also gave a relative cell number [19] of 90 ± 26, a relative cell number [20] of 125 ± 2.4 and a relative cell number (sgRNA knockout: sgXBP1, 10 nM) of 99.2 ± 16. The relative cell number (sgRNA knockout: sgXBP1, 100 nM) was 113 ± 32, the relative cell number [21] was 108 ± 1.4 and the relative cell number [22] was 96.4 ± 13.

With `CNC(=O)c1cc(Oc2ccc(NC(=O)Nc3ccc(Cl)c(C(F)(F)F)c3)cc2)ccn1` [Sorafenib] the relative cell number (sgRNA knockout: sgATF3, 10 nM) was 106 ± 18, the relative cell number (sgRNA knockout: sgATF3, 100 nM) was 106 ± 18 and the relative cell number [1] was 152 ± 2.6. For the same compound, the relative cell number [2] was 29.4 ± 6.1, the relative cell number (sgRNA knockout: sgATF4, 10 nM) was 110 ± 60 and the relative cell number (sgRNA knockout: sgATF4, 100 nM) was 90.8 ± 62. It also gave a relative cell number [3] of 124 ± 23, a relative cell number [4] of 34.4 ± 8.6 and a relative cell number (sgRNA knockout: sgATF6, 10 nM) of 83.4 ± 33. The relative cell number (sgRNA knockout: sgATF6, 100 nM) was 70.5 ± 38, the relative cell number [5] was 120 ± 16 and the relative cell number [6] was 48.4 ± 12. It also gave a relative cell number (sgRNA knockout: sgATG7, 10 nM) of 90.1 ± 30, a relative cell number (sgRNA knockout: sgATG7, 100 nM) of 105 ± 46 and a relative cell number [7] of 114 ± 8.7. For the same compound, the relative cell number [8] was 38.7 ± 7.7, the relative cell number (sgRNA knockout: sgERN1, 10 nM) was 98.9 ± 5.8 and the relative cell number (sgRNA knockout: sgERN1, 100 nM) was 88.1 ± 3.3. The relative cell number [9] was 125 ± 6, the relative cell number [10] was 45.9 ± 12 and the relative cell number (sgRNA knockout: sgHSF2, 10 nM) was 74.4 ± 17. For the same compound, the relative cell number (sgRNA knockout: sgHSF2, 100 nM) was 121 ± 14, the relative cell number [11] was 150 ± 28 and the relative cell number [12] was 35.26 ± 0.34. The relative cell number [13] was 174 ± 6.1, the relative cell number [14] was 87.3 ± 17 and the relative cell number [15] was 114 ± 10. It also gave a relative cell number [16] of 36.68 ± 0.17, a relative cell number [17] of 84.7 ± 4.1 and a relative cell number [18] of 84.2 ± 4. The relative cell number [19] was 177 ± 28, the relative cell number [20] was 49.8 ± 5.3 and the relative cell number (sgRNA knockout: sgXBP1, 10 nM) was 138 ± 3. It also gave a relative cell number (sgRNA knockout: sgXBP1, 100 nM) of 110 ± 1.6, a relative cell number [21] of 115 ± 17 and a relative cell number [22] of 41.6 ± 1.8.

`Fc1ccc(CNc2ncnc3ccc(F)cc23)cc1` [Spautin1] showed a relative cell number (sgRNA knockout: sgATF3, 10 nM) of 119 ± 13, a relative cell number (sgRNA knockout: sgATF3, 100 nM) of 113 ± 40 and a relative cell number [1] of 118 ± 28. It also gave a relative cell number [2] of 61.9 ± 11, a relative cell number (sgRNA knockout: sgATF4, 10 nM) of 103 ± 35 and a relative cell number (sgRNA knockout: sgATF4, 100 nM) of 98.4 ± 7.5. The relative cell number [3] was 91.2 ± 26, the relative cell number [4] was 55.4 ± 5.7 and the relative cell number (sgRNA knockout: sgATF6, 10 nM) was 173 ± 80. It also gave a relative cell number (sgRNA knockout: sgATF6, 100 nM) of 85.3 ± 39, a relative cell number [5] of 118 ± 1.4 and a relative cell number [6] of 45.3 ± 14. For the same compound, the relative cell number (sgRNA knockout: sgATG7, 10 nM) was 101 ± 46, the relative cell number (sgRNA knockout: sgATG7, 100 nM) was 99.5 ± 12 and the relative cell number [7] was 87.2 ± 26. For the same compound, the relative cell number [8] was 62.9 ± 22, the relative cell number (sgRNA knockout: sgERN1, 10 nM) was 88.7 ± 18 and the relative cell number (sgRNA knockout: sgERN1, 100 nM) was 91.5 ± 26. For the same compound, the relative cell number [9] was 74.9 ± 10, the relative cell number [10] was 62.1 ± 18 and the relative cell number (sgRNA knockout: sgHSF2, 10 nM) was 111 ± 17. The relative cell number (sgRNA knockout: sgHSF2, 100 nM) was 112 ± 3.5, the relative cell number [11] was 102 ± 2.4 and the relative cell number [12] was 52.5 ± 11. For the same compound, the relative cell number [13] was 117 ± 16, the relative cell number [14] was 105 ± 31 and the relative cell number [15] was 91.1 ± 8.9. The relative cell number [16] was 63.1 ± 5.8, the relative cell number [17] was 93.3 ± 69 and the relative cell number [18] was 82.8 ± 9.6. The relative cell number [19] was 81.4 ± 4.5, the relative cell number [20] was 35.2 ± 1.3 and the relative cell number (sgRNA knockout: sgXBP1, 10 nM) was 98.85 ± 0.32. It also gave a relative cell number (sgRNA knockout: sgXBP1, 100 nM) of 91.1 ± 2.6, a relative cell number [21] of 92.7 ± 27 and a relative cell number [22] of 62 ± 13.
